Holding throughout (assay type): functional
One test relates to Candida albicans. Put plainly: Antifungal activity against Candida albicans ATCC 10231 assessed as diameter of inhibition zone at 200 ug per disc after 48 hrs by agar disc diffusion method. Put shortly:
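Yeast tested by agar disc diffusion. Compounds at 20 mg mL⁻¹ in DMSO, filter-sterilised. 6 mm discs carried 10 µl (200 µg per disc), with DMSO discs as negative control. Incubation 48 h at 30 °C. Zone diameter was averaged over 3 repeats (±1 mm).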
In general terms: Agar diffusion results depend on both activity and mobility in agar.

A further test deals with Staphylococcus aureus. Description: Antibacterial activity against Staphylococcus aureus ATCC 29737 assessed as diameter of inhibition zone at 200 ug per disc after 24 hrs by agar disc diffusion method. The method in brief: (§1)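 Agar disc diffusion. Compounds at 20 mg mL⁻¹ in DMSO, filter-sterilised. 100 µL of 10⁸ CFU mL⁻¹ bacteria spread on nutrient agar. 6 mm discs carried 10 µl (200 µg per disc), with DMSO discs as negative control. Incubation 24 h at 37 °C. Read-out is inhibition zone diameter, mean of 3 repeats (±1 mm).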

For a further test, the system named is Escherichia coli. Description: Antibacterial activity against Escherichia coli ATCC 10536 assessed as diameter of inhibition zone at 200 ug per disc after 24 hrs by agar disc diffusion method. Put shortly:
as §1

The test system of a further test is Pseudomonas aeruginosa. Put plainly: Antibacterial activity against Pseudomonas aeruginosa ATCC 27853 assessed as diameter of inhibition zone at 200 ug per disc after 24 hrs by agar disc diffusion method. Put shortly: as §1

For the sequence NYSTATIN, in the test with Candida albicans, the inhibition zone (IZ) came out at 33 mm.

Regarding GENTAMICIN, the inhibition zone (IZ) is 21 mm in the test with Staphylococcus aureus, 20 mm in the test on Escherichia coli and less than 6 mm in the test with Pseudomonas aeruginosa.

(Values after ChEMBL document CHEMBL4118244, “Design, synthesis and biological evaluation of benzofuran appended benzothiazepine derivatives as inhibitors of butyrylcholinesterase and antimicrobial agents” (Bioorg Med Chem, 2018).)
